Measured data: PubChem BioAssay AID1671195 (Yale University, 2021)

Screen: 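Genes whose knockdown alters LDL uptake in liver cancer cells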 (primary screen)
Cell system: human Huh7 hepatoma cells
Knock-down reagent: siRNA pool against human genes, 18 nM
Timing: about 2 to 2.5 days of knockdown, then 8 h LDL uptake
Treatment: DiI-labelled LDL at 30 µg/ml for 8 h, in lipoprotein-deficient serum medium
Measured: 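Per-cell DiI-LDL intensity by automated imaging; well means scaled to the plate median and given as a robust z-score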
Reading the numbers: robust z-score: higher = more LDL uptake after knockdown
Hit rule: 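Active when two or more replicates show a robust z-score above 2 or below -2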
In all, the deposit lists about 22,000 reagents; this is an unselected part. About 1,510 of them (6.9%) count as active. 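Active includes knockdowns raising or lowering LDL uptake; positive z-scores mean more uptake, negative mean less.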

no.	target	robust z-score, replicate 1	robust z-score, replicate 2	robust z-score, replicate 3	activity call
1	LOC132870 (retired record)	-0.0454	-0.848	-0.539	inactive
2	CLEC4C	0.772	1.47	0.881	inactive
3	CRYGD	-0.433	0.225	0.323	inactive
4	AEBP2	1.36	1.67	0.945	inactive
5	CANX	-0.152	0.0387	-0.0678	inactive
6	LOC127150 (retired record)	-0.238	-0.34	-0.151	inactive
7	PLAC4	4.99	3.99	4.29	active
8	NABP1	1.43	1.37	1.66	inactive
9	TESPA1	-0.37	1.39	0.546	inactive
10	SREBF2	4.06	2.68	3.27	active
11	BIVM	0.293	0.0411	-2.24	inactive
12	ERP44	0.0799	0.519	-0.072	inactive
13	TTLL10	0.201	0.491	0.875	inactive
14	MAGEB3	0.183	-0.11	-0.2	inactive
15	ASGR1	-0.0848	0.143	-0.0313	inactive
16	CLDN9	-0.742	-0.353	-0.573	inactive
17	PIDD1	1.72	-0.245	2.3	inactive
18	GJA4	0.0971	0.177	-0.15	inactive
19	MAPK6	-0.383	0.119	-0.0325	inactive
20	SURF6	-1.56	-1.57	-1.63	inactive
21	CDC42SE1	1.02	1.54	0.874	inactive
22	FAM9B	-0.389	0.113	-0.144	inactive
23	DDX25	-0.242	-1.14	-0.536	inactive
24	GALP	0.206	-1.02	-0.781	inactive
25	PPWD1	-0.558	-0.259	-0.76	inactive
26	HDAC1	-0.397	-0.123	-0.912	inactive
27	GFPT1	2.63	1.57	1.77	inactive
28	BMS1	0.857	-1.05	1.56	inactive
29	LINC01548	-0.181	-0.406	-0.433	inactive
30	C1QTNF8	0.486	0.572	0.735	inactive
31	ATF4	-0.613	-0.176	-0.501	inactive
32	LDLRAD1	0.795	1.06	0.932	inactive
33	GNPTG	1.8	1.44	2.18	inactive
34	MBL2	-1.05	-1.19	-1.04	inactive
35	PLPP2	-0.506	0.041	-0.425	inactive
36	LOC390250	0.0325	-0.358	-0.11	inactive
37	CLN3	1.37	1.38	1	inactive
38	MOGAT2	0.455	0.273	0.174	inactive
39	RBM11	0.0299	-0.0898	0.352	inactive
40	LINC00880	1.6	1.22	1.44	inactive
41	SPAG5	1.41	0.0981	2.51	inactive
42	GTF2H1	-0.236	-0.246	-0.282	inactive
43	TIPARP	-1.12	-3.01	-0.754	inactive
44	CRCT1	-1.59	0.0825	-2.34	inactive
45	UBIAD1	-1	-0.335	-2.79	inactive
46	AREL1	-1.37	0.979	0.347	inactive

4 of these entries, set out differently.
| target | robust z-score, replicate 1 | robust z-score, replicate 2 | robust z-score, replicate 3 | activity call |
| --- | --- | --- | --- | --- |
| DDX25 | -0.242 | -1.14 | -0.536 | inactive |
| GALP | 0.206 | -1.02 | -0.781 | inactive |
| PPWD1 | -0.558 | -0.259 | -0.76 | inactive |
| HDAC1 | -0.397 | -0.123 | -0.912 | inactive |
